Values from PubChem BioAssay AID1259327 (Drosophila RNAi Screening Center, 2017)
Purpose: 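Data from controls in screens of zinc and manganese toxicity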. System: Drosophila S2R+ cells. Reagent: long dsRNA against Drosophila genes. Duration: 5 days (water added on day 4, read one day later). Treatment: water added as vehicle, no metal, one day before read-out. Measured: 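Total ATP measured by luciferase light, scaled to plate mean, duplicates averaged, then z-scored across plates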. Scale: ATP z-score: higher = more total ATP than typical wells; ATP luminescence: higher = more total ATP. Call rule: 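Called active when the ATP z-score exceeds 1.5 or falls below -1.5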. Meaning of the calls: active = hit: ATP up or down; inactive = no clear ATP change.
In all, the deposit lists about 3,100 reagents; shown is a part drawn at random. 378 of all reagents (12%) were called active. 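Hits include both directions; z-score sign shows ATP rise or fall; raw luminescence values are not plate-normalised.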 Reagent sequences are not shown. Not given: the amount of reagent.

Ostgamma (Oligosaccharide transferase gamma subunit) [DRSC03074]
- ATP luminescence, replicate 1 (RLU): 5.32e5
- ATP luminescence, replicate 2 (RLU): 4.39e5
- Outcome: inactive

Ostgamma (Oligosaccharide transferase gamma subunit) [DRSC39487]
- ATP z-score, duplicate mean: -0.0772
- ATP luminescence, replicate 1 (RLU): 4.35e5
- ATP luminescence, replicate 2 (RLU): 4.60e5
- Outcome: inactive

Eglp1 (Entomoglyceroporin 1) [DRSC04502]
- ATP z-score, duplicate mean: -0.027
- ATP luminescence, replicate 1 (RLU): 7.24e5
- ATP luminescence, replicate 2 (RLU): 7.32e5
- Outcome: inactive

Tim17b1 [DRSC12179]
- ATP z-score, duplicate mean: 0.00816
- ATP luminescence, replicate 1 (RLU): 9.26e5
- ATP luminescence, replicate 2 (RLU): 8.69e5
- Outcome: inactive

Tim17b1 [DRSC39766]
- ATP z-score, duplicate mean: -0.13
- ATP luminescence, replicate 1 (RLU): 4.63e5
- ATP luminescence, replicate 2 (RLU): 4.77e5
- Outcome: inactive

PGRP-LA (Peptidoglycan recognition protein LA) [DRSC10327]
- ATP z-score, duplicate mean: 0.796
- ATP luminescence, replicate 1 (RLU): 9.81e5
- ATP luminescence, replicate 2 (RLU): 1.02e6
- Outcome: inactive

PGRP-LA (Peptidoglycan recognition protein LA) [DRSC10414]
- ATP z-score, duplicate mean: 0.473
- ATP luminescence, replicate 1 (RLU): 8.17e5
- ATP luminescence, replicate 2 (RLU): 7.69e5
- Outcome: inactive

Ranbp21 [DRSC19447]
- ATP z-score, duplicate mean: 0.456
- ATP luminescence, replicate 1 (RLU): 7.58e5
- ATP luminescence, replicate 2 (RLU): 7.48e5
- Outcome: inactive

Ranbp21 [DRSC39764]
- ATP z-score, duplicate mean: -0.00995
- ATP luminescence, replicate 1 (RLU): 4.89e5
- ATP luminescence, replicate 2 (RLU): 4.67e5
- Outcome: inactive

CG14621 [DRSC20635]
- ATP z-score, duplicate mean: 0.177
- ATP luminescence, replicate 1 (RLU): 7.39e5
- ATP luminescence, replicate 2 (RLU): 7.86e5
- Outcome: inactive

CG14621 [DRSC27094]
- ATP z-score, duplicate mean: -0.428
- ATP luminescence, replicate 1 (RLU): 9.56e5
- ATP luminescence, replicate 2 (RLU): 1.07e6
- Outcome: inactive

CG5535 [DRSC10514]
- ATP z-score, duplicate mean: -1.03
- ATP luminescence, replicate 1 (RLU): 5.45e5
- ATP luminescence, replicate 2 (RLU): 6.99e5
- Outcome: inactive

CG5535 [DRSC29215]
- ATP z-score, duplicate mean: -0.142
- ATP luminescence, replicate 1 (RLU): 7.98e5
- ATP luminescence, replicate 2 (RLU): 8.13e5
- Outcome: inactive

Tsp66E (Tetraspanin 66E) [DRSC09683]
- ATP z-score, duplicate mean: -0.116
- ATP luminescence, replicate 1 (RLU): 9.00e5
- ATP luminescence, replicate 2 (RLU): 8.62e5
- Outcome: inactive

CCAP-R (Crustacean cardioactive peptide receptor) [DRSC14891]
- ATP z-score, duplicate mean: 0.00134
- ATP luminescence, replicate 1 (RLU): 7.57e5
- ATP luminescence, replicate 2 (RLU): 7.27e5
- Outcome: inactive

CCAP-R (Crustacean cardioactive peptide receptor) [DRSC15967]
- ATP z-score, duplicate mean: -0.582
- ATP luminescence, replicate 1 (RLU): 2.66e5
- ATP luminescence, replicate 2 (RLU): 7.16e5
- Outcome: inactive

CCAP-R (Crustacean cardioactive peptide receptor) [DRSC29494]
- ATP z-score, duplicate mean: -0.536
- ATP luminescence, replicate 1 (RLU): 7.93e5
- ATP luminescence, replicate 2 (RLU): 7.26e5
- Outcome: inactive

CG14420 [DRSC17917]
- ATP z-score, duplicate mean: -0.755
- ATP luminescence, replicate 1 (RLU): 6.89e5
- ATP luminescence, replicate 2 (RLU): 8.13e5
- Outcome: inactive

CG14420 [DRSC25167]
- ATP z-score, duplicate mean: -0.394
- ATP luminescence, replicate 1 (RLU): 8.62e5
- ATP luminescence, replicate 2 (RLU): 9.82e5
- Outcome: inactive

if (inflated) [DRSC20341]
- ATP z-score, duplicate mean: -0.411
- ATP luminescence, replicate 1 (RLU): 6.77e5
- ATP luminescence, replicate 2 (RLU): 7.20e5
- Outcome: inactive

if (inflated) [DRSC39458]
- ATP z-score, duplicate mean: -0.426
- ATP luminescence, replicate 1 (RLU): 4.43e5
- ATP luminescence, replicate 2 (RLU): 4.07e5
- Outcome: inactive

CG11438 [DRSC11660]
- ATP z-score, duplicate mean: -0.0864
- ATP luminescence, replicate 1 (RLU): 9.12e5
- ATP luminescence, replicate 2 (RLU): 8.58e5
- Outcome: inactive

CG11438 [DRSC36909]
- ATP z-score, duplicate mean: 0.893
- ATP luminescence, replicate 1 (RLU): 5.92e5
- ATP luminescence, replicate 2 (RLU): 7.20e5
- Outcome: inactive

Or83c (Odorant receptor 83c) [DRSC12359]
- ATP z-score, duplicate mean: -0.736
- ATP luminescence, replicate 1 (RLU): 8.75e5
- ATP luminescence, replicate 2 (RLU): 7.27e5
- Outcome: inactive

Or83c (Odorant receptor 83c) [DRSC39535]
- ATP z-score, duplicate mean: 2.42
- ATP luminescence, replicate 1 (RLU): 6.44e5
- ATP luminescence, replicate 2 (RLU): 5.84e5
- Outcome: active

A few values from above.
Entry for CG14621 [DRSC20635] under “Outcome”: inactive
CG5535 [DRSC29215], ATP z-score, duplicate mean → -0.142
